Measured values published in patent US20080064729A1, “Phenethylamide derivatives with kinase inhibitory activity” (Millennium Pharmaceuticals, Inc., priority 2006, published 2008).
Some entries share one result that the patent states for a list of compounds. Some ranges recur; such a range may be that of the whole group of compounds.

Amino acid sequences for entries named in this document (tags omitted).
UniProt P15056, whole entry, stated change not applied: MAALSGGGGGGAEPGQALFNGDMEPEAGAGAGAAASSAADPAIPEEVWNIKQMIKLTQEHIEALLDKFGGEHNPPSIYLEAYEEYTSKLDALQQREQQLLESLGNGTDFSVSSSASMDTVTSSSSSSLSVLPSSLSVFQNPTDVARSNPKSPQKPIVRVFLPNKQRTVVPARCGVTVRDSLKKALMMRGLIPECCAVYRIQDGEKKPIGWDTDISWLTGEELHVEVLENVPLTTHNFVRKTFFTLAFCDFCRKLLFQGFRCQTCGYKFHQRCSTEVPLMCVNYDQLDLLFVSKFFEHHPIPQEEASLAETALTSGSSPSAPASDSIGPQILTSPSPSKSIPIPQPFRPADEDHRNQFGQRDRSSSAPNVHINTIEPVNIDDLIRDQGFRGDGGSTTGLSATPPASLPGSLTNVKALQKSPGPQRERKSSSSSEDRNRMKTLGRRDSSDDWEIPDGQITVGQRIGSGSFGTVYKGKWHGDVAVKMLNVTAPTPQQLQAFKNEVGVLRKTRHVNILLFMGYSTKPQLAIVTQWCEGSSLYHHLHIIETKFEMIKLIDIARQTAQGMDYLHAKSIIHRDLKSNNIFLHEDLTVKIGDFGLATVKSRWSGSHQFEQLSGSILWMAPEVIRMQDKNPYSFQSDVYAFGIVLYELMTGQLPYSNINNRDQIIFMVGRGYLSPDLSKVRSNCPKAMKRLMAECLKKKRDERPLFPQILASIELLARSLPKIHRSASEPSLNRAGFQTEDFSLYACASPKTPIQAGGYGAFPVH

What follows are molecules tested against T1, B-Raf (V599E or Wild Type) (Homo sapiens, UniProt P15056) (assay: B-Raf Flash Plate Assay). Conditions: 33P ATP, 0.5 μM ATP, 1 μM Peptide 118, V599E or Wild Type not specified.
T1 construct: Enzymatically active wild-type B-Raf was purchased from Upstate (cat# 14-530); Enzymatically active mutant B-Raf(V599E) was purchased from Upstate (cat# 14-557)
Format: biochemical
In the case of `CNC(=O)c1cc(Oc2cccc(CCNC(=O)c3cccc(C(F)(F)F)c3)c2)ccn1` [Compound I-192, N-methyl-4-[3-(2-{[3-(trifluoromethyl)benzoyl]amino}ethyl)phenoxy]pyridine-2-carboxamide], the IC50 is reported as ≤ 1000 nM.

Same assay, conditions: tested at a concentration of 10 μM
In the case of `CC(=O)Nc1cc(Oc2cccc(CCNC(=O)c3cccc(C(F)(F)F)c3)c2)ccn1` [Compound I-187, N-[2-(3-{[2-(acetylamino)pyridin-4-yl]oxy}phenyl)ethyl]-3-(trifluoromethyl)-benzamide], the inhibition is reported as 40-68%. In the case of `CC(=O)Nc1cc(Oc2cccc(CCNC(=O)c3ccc(Cl)c(C(F)(F)F)c3)c2)ccn1` [Compound I-188, N-[2-(3-{[2-(acetylamino)pyridin-4-yl]oxy}phenyl)ethyl]-4-chloro-3-(trifluoromethyl)benzamide], the inhibition is reported as 40-68%. `CC(C)(C)c1cccc(C(=O)NCCc2cccc(Oc3ccnc(C4=NCCN4)c3)c2)c1` [Compound I-189, 3-tert-butyl-N-[2-(3-{[2-(4,5-dihydro-1H-imidazol-2-yl)pyridin-4-yl]oxy}phenyl)-ethyl]benzamide] was tested, and the inhibition was 40-68%. In the case of `CC(=O)Nc1cc(Oc2cccc(CCNC(=O)c3cccc(C(C)(C)C)c3)c2)ccn1` [Compound I-190, N-[2-(3-{[2-(acetylamino)pyridin-4-yl]oxy}phenyl)ethyl]-3-tert-butylbenzamide], the inhibition is reported as 40-68%. In the case of `CNC(=O)c1cc(Oc2cccc(CCNC(=O)c3cccc(C(C)(C)C)c3)c2)ccn1` [Compound I-191, 4-(3-{2-[(3-tert-butylbenzoyl)amino]ethyl}phenoxy)-N-methylpyridine-2-carboxamide], the inhibition is reported as 40-68%.
